Results are given in words; binding and its absence hold for the method and conditions named. In cells and extracts the contact can be indirect. Some binding calls cover weakened binding; strength is not graded here. For some of these results: Tags and fused reporters may be left off the sequences shown.
How the values were obtained:
TMED7-FLAG [1] = target: T1, TMED7-FLAG (UniProt Q9Y3B3); experiment: co-IP
T1 sequence: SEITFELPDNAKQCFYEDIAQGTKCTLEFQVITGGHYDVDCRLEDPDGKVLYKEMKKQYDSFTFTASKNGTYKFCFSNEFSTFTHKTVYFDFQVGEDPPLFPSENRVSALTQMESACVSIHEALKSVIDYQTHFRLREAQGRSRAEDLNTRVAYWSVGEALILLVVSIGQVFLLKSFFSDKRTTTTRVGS

The chains behind the UniProt entries cited, without tags or fusion partners. Where a name states a change or a piece, a line headed by the entry shows the natural chain unless it says otherwise. Residues count along the entry.
UniProt O00206, residues 24-839: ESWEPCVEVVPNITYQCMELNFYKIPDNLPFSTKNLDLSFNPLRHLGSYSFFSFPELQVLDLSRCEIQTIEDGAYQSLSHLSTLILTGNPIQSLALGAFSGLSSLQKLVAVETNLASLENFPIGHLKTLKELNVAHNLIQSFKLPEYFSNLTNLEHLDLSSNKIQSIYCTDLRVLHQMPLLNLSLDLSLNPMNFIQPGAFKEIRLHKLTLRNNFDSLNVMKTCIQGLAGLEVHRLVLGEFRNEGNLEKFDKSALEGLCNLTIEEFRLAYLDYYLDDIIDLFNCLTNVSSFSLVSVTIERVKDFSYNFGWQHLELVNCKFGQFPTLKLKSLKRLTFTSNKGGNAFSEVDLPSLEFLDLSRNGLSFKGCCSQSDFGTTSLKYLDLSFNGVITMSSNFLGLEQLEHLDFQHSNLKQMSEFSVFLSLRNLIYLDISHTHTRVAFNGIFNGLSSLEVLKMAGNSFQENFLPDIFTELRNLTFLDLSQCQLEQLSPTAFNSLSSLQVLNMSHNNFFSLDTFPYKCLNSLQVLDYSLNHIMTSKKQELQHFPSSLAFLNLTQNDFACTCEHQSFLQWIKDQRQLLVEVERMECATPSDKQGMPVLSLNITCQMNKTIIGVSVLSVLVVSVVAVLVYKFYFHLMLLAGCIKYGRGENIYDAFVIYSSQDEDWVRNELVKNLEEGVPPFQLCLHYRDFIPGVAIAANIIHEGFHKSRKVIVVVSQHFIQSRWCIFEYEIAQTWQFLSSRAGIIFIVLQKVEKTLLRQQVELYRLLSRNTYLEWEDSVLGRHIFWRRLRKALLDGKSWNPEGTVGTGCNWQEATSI
UniProt O60603: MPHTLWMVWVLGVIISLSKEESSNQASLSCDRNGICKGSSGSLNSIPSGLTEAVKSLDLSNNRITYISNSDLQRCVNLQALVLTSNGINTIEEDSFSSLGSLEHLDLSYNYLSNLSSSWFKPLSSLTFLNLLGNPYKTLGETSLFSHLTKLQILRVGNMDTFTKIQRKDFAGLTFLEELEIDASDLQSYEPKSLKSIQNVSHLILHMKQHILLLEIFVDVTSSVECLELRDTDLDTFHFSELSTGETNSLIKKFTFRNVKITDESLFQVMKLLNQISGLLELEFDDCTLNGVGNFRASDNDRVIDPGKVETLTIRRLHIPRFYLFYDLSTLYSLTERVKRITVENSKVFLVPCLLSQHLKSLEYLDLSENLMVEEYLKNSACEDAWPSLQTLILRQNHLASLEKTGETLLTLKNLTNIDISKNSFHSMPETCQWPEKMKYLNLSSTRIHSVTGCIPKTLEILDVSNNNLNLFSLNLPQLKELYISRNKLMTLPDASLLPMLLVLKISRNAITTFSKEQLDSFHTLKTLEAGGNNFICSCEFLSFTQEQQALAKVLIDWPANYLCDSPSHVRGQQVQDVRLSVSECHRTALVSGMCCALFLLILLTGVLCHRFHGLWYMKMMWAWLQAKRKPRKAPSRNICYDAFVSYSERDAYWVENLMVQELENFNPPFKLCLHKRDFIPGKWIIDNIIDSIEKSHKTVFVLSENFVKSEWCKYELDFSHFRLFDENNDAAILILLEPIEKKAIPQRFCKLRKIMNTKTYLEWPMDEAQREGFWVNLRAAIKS
UniProt O15455, residues 24-904: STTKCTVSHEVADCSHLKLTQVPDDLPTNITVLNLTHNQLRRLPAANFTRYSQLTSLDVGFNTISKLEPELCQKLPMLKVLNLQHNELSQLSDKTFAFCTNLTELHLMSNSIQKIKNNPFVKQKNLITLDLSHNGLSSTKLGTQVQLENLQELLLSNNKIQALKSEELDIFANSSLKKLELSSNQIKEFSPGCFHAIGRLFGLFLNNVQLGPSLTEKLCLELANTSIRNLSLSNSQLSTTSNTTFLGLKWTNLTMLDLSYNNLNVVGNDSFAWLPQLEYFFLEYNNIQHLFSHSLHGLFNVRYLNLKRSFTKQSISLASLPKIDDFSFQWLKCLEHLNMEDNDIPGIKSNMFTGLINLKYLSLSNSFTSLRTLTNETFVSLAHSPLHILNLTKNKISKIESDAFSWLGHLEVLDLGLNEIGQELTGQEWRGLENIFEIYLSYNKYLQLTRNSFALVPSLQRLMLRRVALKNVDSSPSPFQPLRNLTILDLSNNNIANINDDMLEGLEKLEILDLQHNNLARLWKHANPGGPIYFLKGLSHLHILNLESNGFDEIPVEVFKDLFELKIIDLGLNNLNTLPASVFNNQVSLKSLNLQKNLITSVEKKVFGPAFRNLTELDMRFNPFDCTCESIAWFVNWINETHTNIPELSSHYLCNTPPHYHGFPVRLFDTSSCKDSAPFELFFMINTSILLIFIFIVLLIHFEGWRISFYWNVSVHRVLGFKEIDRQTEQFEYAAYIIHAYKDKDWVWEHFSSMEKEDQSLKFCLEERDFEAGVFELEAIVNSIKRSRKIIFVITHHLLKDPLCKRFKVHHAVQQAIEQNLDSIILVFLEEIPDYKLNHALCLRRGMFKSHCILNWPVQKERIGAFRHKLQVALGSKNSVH
UniProt O60602, residues 21-858: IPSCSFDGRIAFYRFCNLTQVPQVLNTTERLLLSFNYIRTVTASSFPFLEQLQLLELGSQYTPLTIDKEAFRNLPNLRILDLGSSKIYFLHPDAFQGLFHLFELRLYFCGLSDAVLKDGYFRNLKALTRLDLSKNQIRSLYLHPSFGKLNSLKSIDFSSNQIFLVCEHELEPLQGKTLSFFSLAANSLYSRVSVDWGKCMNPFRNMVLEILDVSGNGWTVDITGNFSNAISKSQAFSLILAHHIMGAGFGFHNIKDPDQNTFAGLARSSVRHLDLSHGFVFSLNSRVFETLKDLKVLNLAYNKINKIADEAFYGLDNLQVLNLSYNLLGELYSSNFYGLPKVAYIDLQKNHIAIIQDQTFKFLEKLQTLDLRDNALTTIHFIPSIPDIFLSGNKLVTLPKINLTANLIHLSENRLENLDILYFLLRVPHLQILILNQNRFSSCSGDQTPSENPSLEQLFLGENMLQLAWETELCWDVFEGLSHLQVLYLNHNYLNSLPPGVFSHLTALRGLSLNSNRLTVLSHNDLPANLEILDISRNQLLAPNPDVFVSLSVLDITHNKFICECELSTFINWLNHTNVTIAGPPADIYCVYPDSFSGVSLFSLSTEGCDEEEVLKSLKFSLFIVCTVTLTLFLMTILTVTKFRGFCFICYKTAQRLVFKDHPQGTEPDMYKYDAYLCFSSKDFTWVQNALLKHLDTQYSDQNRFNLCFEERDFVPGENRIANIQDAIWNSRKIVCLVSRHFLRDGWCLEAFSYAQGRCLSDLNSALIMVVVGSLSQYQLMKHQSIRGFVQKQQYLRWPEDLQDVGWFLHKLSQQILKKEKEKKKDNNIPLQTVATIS
UniProt Q15363, residues 21-201: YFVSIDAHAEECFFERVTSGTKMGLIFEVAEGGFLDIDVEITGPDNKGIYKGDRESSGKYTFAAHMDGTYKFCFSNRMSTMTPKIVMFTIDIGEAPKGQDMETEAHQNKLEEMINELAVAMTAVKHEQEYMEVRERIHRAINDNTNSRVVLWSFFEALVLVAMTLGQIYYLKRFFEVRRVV

TMED7-FLAG [2] = target: T1, TMED7-FLAG; experiment: proximity ligation
TLR4 [3] = target: TLR4 (UniProt O00206); experiment: co-IP
TLR2 (human) [4] = target: TLR2 (human) (UniProt O60603); experiment: co-IP
TLR3 (human) [5] = target: TLR3 (human) (UniProt O15455); experiment: co-IP
TLR4 [6] = target: TLR4 (UniProt O00206); experiment: proximity ligation
TLR2 (human) [7] = target: TLR2 (human) (UniProt O60603); experiment: proximity ligation
TLR3 (human) [8] = target: TLR3 (human) (UniProt O15455); experiment: proximity ligation

Substance | binding (TMED7-FLAG [1]) | binding (TMED7-FLAG [2]) | other results
TLR2 (from UniProt O60603 21-784) (receptor) | binds | binds | –
TLR3 (from UniProt O15455 24-904) (receptor) | no binding | no binding | –
TLR4 (from UniProt O00206 24-839) (receptor) | binds | binds | –
TLR5 (from UniProt O60602 21-858) (receptor) | – | binds | –
TMED2-HA (from UniProt Q15363 21-201) | – | – | binding (TLR4 [3]): binds; binding (TLR2 (human) [4]): binds; binding (TLR3 (human) [5]): binds; binding (TLR4 [6]): binds; binding (TLR2 (human) [7]): binds; binding (TLR3 (human) [8]): binds

— publication doi:10.1101/2022.10.10.511598
